Measurements taken from PubChem BioAssay AID504467 (National Center for Advancing Translational Sciences (NCATS), 2011).
About 7,700 (2.3%) of roughly 330,000 compounds were called active. The inconclusive results got no clear call from the source; some entries with a clear call stand among them for comparison. Calls follow the shape of the dose curve; as a rule, active = well fitted inhibition curve with a large enough effect; inconclusive = small, poorly fitted or top-dose-only effect, or effect the other way; inactive = flat fitted curve, though single readings scatter. Where the call is inconclusive, the potency comes from a doubtful curve fit.

assay: qHTS screen for small molecules that inhibit ELG1-dependent DNA repair in human embryonic kidney (HEK293T) cells expressing luciferase-tagged ELG1; conditions: HEK293T ELG1-luciferase reporter, luminescence, 16 h, DNA damage induced by 5-fluorouridine; activity change, negative = inhibition: at 46.1 µM (top of the series); also: nearly all actives have a fitted effect of over 55% in size
Method in brief: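 Cells (2,000 per well) received 5-fluorouridine plus test compound or DMSO and were incubated 16 hr at 37 °C, 5% CO2. Luciferase activity was read by luminescence 30 min after ONE-Glo addition; signal suppression marked inhibition of damage-induced ELG1 function.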
% is scaled to controls: 0 for no effect and ±100 for the full control effect; potency is read from the fitted curve at half-maximal effect.

**Q.** For COc1ccc2c(c1)oc(=O)c1ccccc12, which Potency is on record?
**A.** inconclusive: 23.1 µM [activator, single point]

**Q.** Which Potency does the source give for COc1ccc(/C=C/C(=O)c2ccc3c(c2)OCO3)c(OC)c1 here?
**A.** inconclusive: 2.59 µM [activator, full curve]

**Q.** Which Potency does the source give for O=C(COC(=O)c1ccccc1Br)Nc1cccnc1Cl here?
**A.** inactive

**Q.** Which Potency does the source give for COc1ccccc1NC(=O)N1CCN(c2cc(-c3ccccc3)nc3ncnn23)CC1 here?
**A.** active: 13 µM

**Q.** For CC1CCN(Cc2nc3c(c(=O)n(C)c(=O)n3C)n2CCCc2ccccc2)CC1, which Potency is on record?
**A.** inactive

**Q.** With O=S(=O)(c1ccc(Nc2ccc(-c3ccc4c(c3)OCCO4)nn2)cc1)N1CCCC1 as the compound, how does the Potency read?
**A.** inconclusive: 29.1 µM [inhibitor, single point]

**Q.** Which Potency does the source give for COCCN1C(=O)c2ccccc2C(C(=O)N2CCN(c3ccccc3)CC2)C1c1ccc(F)cc1 (centres undefined) here?
**A.** inactive

**Q.** With CN(Cc1ccccc1)Cc1nc2scc(-c3ccccc3)c2c(=O)[nH]1 as the compound, how does the Potency read?
**A.** inconclusive: 29.1 µM [inhibitor, single point]

**Q.** With COc1ccc2cc(/C=C3\SC(=S)NC3=O)c(N3CCOCC3)nc2c1 as the compound, how does the Potency read?
**A.** inconclusive: 18.4 µM [inhibitor, single point]

**Q.** With Cc1nnn(C23CC4CC(CC(CC(=O)Nc5ccc(C)c(Cl)c5)(C4)C2)C3)n1 as the compound, how does the Potency read?
**A.** inconclusive: 18.4 µM [inhibitor, single point]

**Q.** With CC(=O)Nn1c(-c2ccccc2)cc2ccccc21 as the compound, how does the Potency read?
**A.** inconclusive: 16.4 µM [inhibitor, partial curve, poor fit]

**Q.** Which Potency does the source give for CCOC(=O)c1c(-c2ccc(OC)cc2)csc1NC(=O)CSc1ncnc2sccc12 here?
**A.** inconclusive: 18.4 µM [inhibitor, partial curve, poor fit]

**Q.** Which Potency does the source give for COc1ccc(N2CCN(C3CCCN(C(=O)CN4CCCC4=O)C3)CC2)cc1 (centres undefined) here?
**A.** inconclusive: 23.1 µM [activator, single point]

**Q.** With CCN(CC)S(=O)(=O)c1ccc(N2CCCCC2)c(NC(=O)C2=COCCO2)c1 as the compound, how does the Potency read?
**A.** inconclusive: 13 µM [inhibitor, partial curve, poor fit]

**Q.** For COc1ccc(-c2csc(N3N=C(C)C(C)C3=O)n2)cc1 (centres undefined), which Potency is on record?
**A.** inconclusive: 7.3 µM [activator, partial curve]

**Q.** With CC(=O)Nc1ccc(S(=O)(=O)N2CCCc3ccccc32)cc1 as the compound, how does the Potency read?
**A.** inconclusive: 3.66 µM [inhibitor, partial curve, poor fit]

**Q.** For CCOC(=O)c1[nH]c2cc3c(cc2c1NC(=O)CN1CCC2(CC1)OCCO2)OCO3, which Potency is on record?
**A.** inconclusive: 14.6 µM [inhibitor, partial curve]

**Q.** Which Potency does the source give for CCCOC(=O)CSc1nc(N2CCOCC2)c2c(c1C#N)CC(C)(C)OC2 here?
**A.** inconclusive: 5.17 µM [inhibitor, partial curve]

**Q.** For O=C(N/N=C/c1ccc(Br)cc1)c1ccc(F)cc1, which Potency is on record?
**A.** inconclusive: 10.3 µM [activator, partial curve, poor fit]

**Q.** With COc1ccc(C2CC(c3ccc(Br)cc3)=NN2C(=O)c2cccnc2)cc1 (centres undefined) as the compound, how does the Potency read?
**A.** inconclusive: 23.1 µM [inhibitor, single point]

**Q.** Which Potency does the source give for c1ccc(C2Nc3ccccc3Oc3ccccc32)cc1 (centres undefined) here?
**A.** inactive

**Q.** For CN(Cc1ccccc1C#N)S(=O)(=O)c1cccs1, which Potency is on record?
**A.** inactive

**Q.** With Cc1ccc(C(=O)Nc2ccnc(-c3cccnc3)n2)cc1 as the compound, how does the Potency read?
**A.** inconclusive: 25.9 µM [activator, single point]

**Q.** With CCn1cc(C2=NOC(C(=O)Nc3ccccc3C(=O)OC)C2)c(C)n1 (centres undefined) as the compound, how does the Potency read?
**A.** inconclusive: 11.6 µM [inhibitor, partial curve, poor fit]

**Q.** For COc1cc(CNCCSc2nnnn2C)cc(Br)c1OCc1ccccc1F, which activity change, negative = inhibition is on record?
**A.** inconclusive: 4.09% [activator]

**Q.** Which Potency does the source give for CCOc1cc(CNCCO)cc(Br)c1OCc1ccccc1Cl here?
**A.** inactive

**Q.** For CCc1nnc(NC(=O)CN2CCN(c3ccccc3F)CC2)s1, which Potency is on record?
**A.** inactive

**Q.** For O=C1/C(=C/c2cccs2)CCC1C1CCCC1 (centres undefined), which Potency is on record?
**A.** inconclusive: 16.4 µM [activator, partial curve]

**Q.** With O=C(NCCO)/C(=C/c1ccc2c(c1)OCO2)NC(=O)c1ccc(Br)cc1 as the compound, how does the Potency read?
**A.** inconclusive: 20.6 µM [activator, single point]

**Q.** With COc1ccc(N2C(=O)CC(Cc3ccccc3)C2=O)cc1 (centres undefined) as the compound, how does the Potency read?
**A.** inactive

**Q.** With COc1ccc(S(=O)(=O)N2CCOCC2)cc1NC(=O)Cc1coc2cc(C)c(C)cc12 as the compound, how does the Potency read?
**A.** inconclusive: 29.1 µM [inhibitor, single point]

**Q.** For O=c1cc(-c2ccc(O)cc2)oc2cc(O)c(C3OC(CO)C(O)C(O)C3O)c(O)c12 (centres undefined), which Potency is on record?
**A.** inconclusive: 23.1 µM [activator, partial curve, poor fit]

**Q.** With CN(CC(=O)Nc1cccc(F)c1)C(=O)CCCc1c[nH]c2ccccc12 as the compound, how does the Potency read?
**A.** inconclusive: 0.13 µM [inhibitor, partial curve, poor fit]

**Q.** For O=C(Oc1cccc2ccccc12)c1ccco1, which Potency is on record?
**A.** inactive

**Q.** For CCc1ccc2nc(N(CCN(C)C)C(=O)/C=C/c3cccs3)sc2c1, which Potency is on record?
**A.** inactive

**Q.** For Fc1ccccc1-n1cc(-c2ccccc2)[nH]c1=S, which Potency is on record?
**A.** inconclusive: 23.1 µM [activator, single point]

**Q.** Which Potency does the source give for CCCc1nc(SCC(=O)Nc2nnc(CC)s2)c2c(=O)n(C)c(=O)n(C)c2n1 here?
**A.** inconclusive: 3.26 µM [inhibitor, partial curve]

**Q.** For O=S(=O)(CCOc1ccccc1)c1nc2ccccc2[nH]1, which Potency is on record?
**A.** inconclusive: 29.1 µM [inhibitor, single point]

**Q.** For COc1cc(/C=C(\C#N)c2nc3ccccc3[nH]2)ccc1OC(=O)c1ccco1, which Potency is on record?
**A.** inconclusive: 5.17 µM [activator, full curve]

**Q.** For Cc1ccc(/C=N/N2CCN(c3ccccn3)CC2)cc1, which Potency is on record?
**A.** inconclusive: 20.6 µM [activator, partial curve]

**Q.** With COc1cccc(OCc2cc(C(=O)N3CCN(C)C(c4ccccc4)C3)no2)c1 (centres undefined) as the compound, how does the Potency read?
**A.** inconclusive: 8.2 µM [activator, partial curve]

**Q.** With O=[N+]([O-])c1ccc(N2CCN(Cc3ccc4c(c3)OCO4)CC2)nc1 as the compound, how does the Potency read?
**A.** inconclusive: 29.1 µM [inhibitor, single point]

**Q.** Which Potency does the source give for Cc1ccc(C)c(-n2cc[nH]c2=S)c1 here?
**A.** inconclusive: 16.4 µM [activator, partial curve, poor fit]

**Q.** For COc1ccc(-c2c(C)nn3c(N4CCC(C(=O)NCCN(C)C)CC4)cc(C)nc23)cc1OC, which Potency is on record?
**A.** inactive

**Q.** Which Potency does the source give for O=C(Nc1nnc(CC2=CCCCC2)s1)c1cccs1 here?
**A.** inconclusive: 11.6 µM [activator, single point]

**Q.** With CN(C)S(=O)(=O)c1cccc(NC(=O)CSc2nc3ccccc3n2-c2ccccc2)c1 as the compound, how does the Potency read?
**A.** active: 18.4 µM

**Q.** For O=C(O)CSc1sc(=S)sc1SCC(=O)O, which Potency is on record?
**A.** inactive

**Q.** Which Potency does the source give for COCCN(C(=O)CSc1nc2ccc(OC)cc2[nH]1)c1c(N)n(Cc2ccccc2)c(=O)[nH]c1=O here?
**A.** inactive

**Q.** For O=C(CSc1ncn(-c2ccccc2)n1)N1CCN(c2ccccc2)CC1, which Potency is on record?
**A.** inconclusive: 11.6 µM [inhibitor, single point]

**Q.** For CCCCN(Cc1cc2cc(OC)ccc2[nH]c1=O)C(=O)c1ccccn1, which Potency is on record?
**A.** inconclusive: 10.3 µM [activator, partial curve]

**Q.** For COc1cc(/C=C/C(=O)c2c(O)cc(C)oc2=O)cc(OC)c1O, which Potency is on record?
**A.** inconclusive: 4.61 µM [inhibitor, partial curve]

**Q.** For Cc1[nH]c2ccccc2c1SCc1nnc(SCc2ccc(Cl)cc2)n1C, which Potency is on record?
**A.** active: 16.4 µM

**Q.** For CCNc1nc(NCC)nc(N/N=C/c2cc(OC)c(OC)c(OC)c2)n1, which Potency is on record?
**A.** inconclusive: 25.9 µM [inhibitor, single point]

**Q.** Which Potency does the source give for Cc1ccc(S(=O)(=O)Nc2nc3ccccc3nc2NCc2ccco2)cc1 here?
**A.** inconclusive: 7.31 µM [activator, partial curve]

**Q.** Which Potency does the source give for CCc1ccc(OCC2Cn3c(nc4c3c(=O)[nH]c(=O)n4C)O2)cc1 (centres undefined) here?
**A.** inconclusive: 2.06 µM [inhibitor, single point]

**Q.** For O=C(OCC(=O)N1CCN(C(=O)c2ccco2)CC1)c1cc(-c2cccc(Br)c2)nc2ccccc12, which Potency is on record?
**A.** active: 16.4 µM

**Q.** With O=C(CCn1c(=O)sc2ccccc21)Nc1ccon1 as the compound, how does the Potency read?
**A.** inconclusive: 18.4 µM [activator, single point]

**Q.** With CCOc1ccc(CNC(=O)c2ccc(NC(=O)C3=CSCCO3)cc2)cc1 as the compound, how does the Potency read?
**A.** inconclusive: 14.6 µM [activator, single point]

**Q.** For CC1Cc2cc(S(=O)(=O)N3CCN(c4ccc(Cl)cc4)CC3)ccc2N1C(=O)C1CC1 (centres undefined), which Potency is on record?
**A.** inconclusive: 4.61 µM [inhibitor, single point]

**Q.** For CC(=O)Nc1ccc(Oc2ccc3nc(C)[nH]c3c2)cc1, which Potency is on record?
**A.** inactive

**Q.** For O=c1ccc(-c2ccc(S(=O)(=O)Nc3ccccc3)o2)n[nH]1, which Potency is on record?
**A.** inconclusive: 23.1 µM [activator, partial curve, poor fit]

**Q.** For Cc1ccc(C2(c3ccccc3)NC(=O)N(CC(=O)NC3(C#N)CCCC3)C2=O)cc1C (centres undefined), which Potency is on record?
**A.** inactive

**Q.** For COc1ccc(NC(=O)c2nc[nH]c2C(=O)N[C@@H](C)C(=O)OC(C)(C)C)cc1, which Potency is on record?
**A.** inactive

**Q.** For COc1ccc(Nc2ncc3c(n2)CC(c2ccccc2)CC3=O)cc1 (centres undefined), which Potency is on record?
**A.** active: 14.6 µM

**Q.** Which Potency does the source give for COc1cccc(-c2cc(C(=O)NCCc3ccccc3)no2)c1 here?
**A.** inconclusive: 18.4 µM [activator, partial curve, poor fit]

**Q.** With CCNC(=O)N1c2ccc(OCC)cc2C(C)=CC1(C)C as the compound, how does the Potency read?
**A.** inactive

**Q.** For Cc1ccc(C2NC(=O)c3ccccc3N2)s1 (centres undefined), which Potency is on record?
**A.** inconclusive: 18.4 µM [activator, partial curve]

**Q.** With Cc1cc2[nH]c(=O)c(=O)[nH]c2cc1S(=O)(=O)N(C)C1CCCCC1 as the compound, how does the Potency read?
**A.** inactive

**Q.** For Cc1ccc(C2NC(=O)NC3=C2CCc2ccccc23)cc1 (centres undefined), which Potency is on record?
**A.** inconclusive: 20.6 µM [activator, partial curve]
